These results are taken from publication PMC12337393.

Amino acid sequences for entries named in this document (tags omitted).
UniProt P11142: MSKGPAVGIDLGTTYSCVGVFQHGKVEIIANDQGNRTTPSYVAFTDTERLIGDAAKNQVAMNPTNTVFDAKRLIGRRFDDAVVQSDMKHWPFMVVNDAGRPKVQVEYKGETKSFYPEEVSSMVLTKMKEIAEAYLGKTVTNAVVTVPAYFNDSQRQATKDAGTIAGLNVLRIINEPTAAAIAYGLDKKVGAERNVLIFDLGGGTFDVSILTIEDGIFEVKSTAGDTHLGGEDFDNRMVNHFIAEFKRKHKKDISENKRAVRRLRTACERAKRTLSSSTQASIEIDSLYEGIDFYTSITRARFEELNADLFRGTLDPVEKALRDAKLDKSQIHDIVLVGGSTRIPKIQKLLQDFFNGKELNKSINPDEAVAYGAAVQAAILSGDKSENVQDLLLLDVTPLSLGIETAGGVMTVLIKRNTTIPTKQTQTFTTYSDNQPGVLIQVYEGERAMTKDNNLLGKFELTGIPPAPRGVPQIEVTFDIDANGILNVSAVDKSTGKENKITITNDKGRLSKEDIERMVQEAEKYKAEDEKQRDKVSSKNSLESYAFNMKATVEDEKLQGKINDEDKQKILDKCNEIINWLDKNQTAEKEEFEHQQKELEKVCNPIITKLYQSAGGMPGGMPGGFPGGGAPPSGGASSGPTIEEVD

The target in the experiment is AURKB, bait of the IP-MS in 293T cells (UniProt Q96GD4). Briefly: affinity purification with mass spectrometry; immunoprecipitation of AURKB from 293T cell lysate (Pierce IP Lysis Buffer, Protein A/G agarose beads), beads sent for mass spectrometry; antibody not stated.

Results are given in words; binding and its absence hold for the method and conditions named. Binding seen in cells or lysates may run through a third protein. A yes stands for co-enrichment or nearness to the bait. Other partners may have been found.

Regarding HSPA8 (from UniProt P11142 1-646), the binding result is “binds”. With HNRNPK (from UniProt P61978 1-463), the binding entry was “binds”.

B1: Heterogeneous nuclear ribonucleoprotein M (HNRNPM), endogenous (protein, UniProt P52272 1-730)
chain: MAAGVEAAAEVAATEIKMEEESGAPGVPSGNGAPGPKGEGERPAQNEKRKEKNIKRGGNRFEPYANPTKRYRAFITNIPFDVKWQSLKDLVKEKVGEVTYVELLMDAEGKSRGCAVVEFKMEESMKKAAEVLNKHSLSGRPLKVKEDPDGEHARRAMQKVMATTGGMGMGPGGPGMITIPPSILNNPNIPNEIIHALQAGRLGSTVFVANLDYKVGWKKLKEVFSMAGVVVRADILEDKDGKSRGIGTVTFEQSIEAVQAISMFNGQLLFDRPMHVKMDERALPKGDFFPPERPQQLPHGLGGIGMGLGPGGQPIDANHLNKGIGMGNIGPAGMGMEGIGFGINKMGGMEGPFGGGMENMGRFGSGMNMGRINEILSNALKRGEIIAKQGGGGGGGSVPGIERMGPGIDRLGGAGMERMGAGLGHGMDRVGSEIERMGLVMDRMGSVERMGSGIERMGPLGLDHMASSIERMGQTMERIGSGVERMGAGMGFGLERMAAPIDRVGQTIERMGSGVERMGPAIERMGLSMERMVPAGMGAGLERMGPVMDRMATGLERMGANNLERMGLERMGANSLERMGLERMGANSLERMGPAMGPALGAGIERMGLAMGGGGGASFDRAIEMERGNFGGSFAGSFGGAGGHAPGVARKACQIFVRNLPFDFTWKMLKDKFNECGHVLYADIKMENGKSKGCGVVKFESPEVAERACRMMNGMKLSGREIDVRIDRNA
Consider B1, for which the binding entry is recorded as “binds”.
